# PubChem BioAssay AID1259405 | NCATS – 2018
# Purpose: 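Knock-downs that lift recombinant protein yield in hamster ovary cells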 (primary screen)
# Cells: Chinese hamster CHO-K1 ovary cells with stable secreted eGFP expression
# Reagents: single siRNA against mouse genes, 0.8 pmol siRNA per well (2 µl of 400 nM stock)
# Duration: 3 days
# Measured: 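Per-well intracellular GFP measured by laser scanning cytometry, plus viability from ATP luminescence, each relative to plate median of non-targeting control wells, in %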
# Scale: GFP, % of control: higher = more GFP per well, higher productivity; viability (ATP), % of control: higher = more viable cells (more ATP)
# Rule for the call: 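a knock-down is called active if GFP reaches 120% or more of non-targeting control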
# This is one part, drawn at random, of about 50,000 reagents. About 4,000 of them (8%) were called active. 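Mouse siRNA library applied to hamster cells; one well for each siRNA.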 Unmarked entries are inactive. The numbers tell different reagents against one gene apart.
gene,siRNA no.,"GFP, % of control","viability (ATP), % of control"
Nr1i2,1,123 (active),76.4
Nr1i2,2,111,66.1
Nr1i2,3,88.3,91
Ndnf,1,63.1,61.5
Ndnf,2,97.6,66.4
Ndnf,3,96.5,82
Smyd1,1,83.5,78.3
Smyd1,2,218 (active),124
Wdr5b,1,43.2,22
Wdr5b,2,99.1,77.6
Wdr5b,3,70.7,98.7
Drc4,1,50.4,85
Drc4,2,56,75.5
Drc4,3,56.6,29.3
Sult1e1,1,67.2,59.9
Sult1e1,2,82.9,143
Sult1e1,3,71,125
Or8u8,1,62.2,56.2
Or8u8,2,125 (active),78.4
Or8u8,3,112,81.6
Fbxl2,1,65.5,50.2
Fbxl2,2,87.7,87.4
Fbxl2,3,59.9,47.6
Wfdc21,1,45.1,50.2
Wfdc21,2,180 (active),116
Wfdc21,3,156 (active),72.6
Wfdc21,4,45.1,50.2
Wfdc21,5,109,87
Wfdc21,6,114,59.6
Asb17,1,115,73.1
Asb17,2,67.3,61.1
Asb17,3,178 (active),118
Ebf1,1,82.4,72.5
Ebf1,2,66,67
Ebf1,3,37.7,73.6
Wdr38,1,69.4,73.9
Wdr38,2,56.5,81.1
Wdr38,3,64.2,63.2
Ppp2r5d,1,143 (active),142
Ppp2r5d,2,44.3,43.8
Ppp2r5d,3,85.4,68
Asb14,1,30.3,29.7
Asb14,2,69.1,72.4
Asb14,3,69.8,69
Cdc6,1,66.9,73.4
Cdc6,2,89.7,78.3
Cdc6,3,112,81
Farp1,1,73.1,73.6
Farp1,2,84.7,77
Farp1,3,53.8,42
Kif5b,1,87,81.8
Kif5b,2,112,90.6
Arhgap17,1,62.2,61.4
Arhgap17,2,73.7,84.3
Arhgap17,3,22.7,19.6
Shroom2,1,100,78.6
Shroom2,2,51.4,69.4
Gcc2,1,81.3,65.5
Gcc2,2,56.8,54
Gcc2,3,116,85.9
Qrich1,1,90.7,110
Qrich1,2,69,90.3
Tceanc,1,78.9,102
Tceanc,2,66.4,51.2
Tceanc,3,107,102
Rpusd1,1,78.4,54.5
Rpusd1,2,57.6,69
Rpusd1,3,85.7,86.3
Abcc4,1,114,101
Abcc4,2,56.5,65.2
Abcc4,3,44.6,73.2
Msi2,1,58.7,71
Msi2,2,104,58.4
Msi2,3,83.9,98.7
Sln,1,61.8,67
Sln,2,67.5,52.2
Sln,3,57.1,69.7
Pramel26,1,94.6,55.1
Pramel26,2,64.3,48
Pramel26,3,88.9,71.4
Nup88,1,40,21.3
Nup88,2,69.1,81.1
Nup88,3,63.8,45.6
Fzd5,1,89.6,60.1
Fzd5,2,82.4,73

Sorted by “GFP, % of control” (highest first): some entries from above.
gene,siRNA no.,"GFP, % of control","viability (ATP), % of control"
Asb17,3,178 (active),118
Asb17,1,115,73.1
Wfdc21,6,114,59.6
Ebf1,1,82.4,72.5
Wdr38,1,69.4,73.9
Asb17,2,67.3,61.1
Ebf1,2,66,67
Wdr38,2,56.5,81.1
Ebf1,3,37.7,73.6
